The assay can be described thus: qHTS Assay to Find Inhibitors of Chronic Active B-Cell Receptor Signaling. The following applies: ABC-DLBCL IkBa-CBG/CBR reporter, luminescence ratio (green luciferase fused to IkBa over red control in TMD8 lymphoma cells), 4 h. The method in brief: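 Compounds up to 46 uM were incubated four hours with TMD8 cells whose green CBG68 luciferase is fused to IkappaBalpha; red CBR luminescence normalised the signal, and concentration-effect curves were fitted to fusion, red and ratio data.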

[1] abbreviates: measured here: CBR red luminescence, cell number.
[2] abbreviates: measured here: IkBa-CBG green luminescence.

The AC50 is the concentration at which the activity in the assay is half-maximal.

This is one part of the list. These are further read-outs of the screen, such as a control signal, another cell line or another target. No call is given for them. Most of these compounds were active or inconclusive in the main read-out, so they are no random draw. Potencies come from curve fits of mixed quality, noted in brackets.

For `O=c1cc(-c2c(O)c3ccccc3n(Cc3ccccc3)c2=O)[nH][nH]1`, under setting [1], the AC50 was 5.01 µM [rising, single point].
Same read-out and setting: the result for `Cc1ccc(-c2nnn3c2nc(NCCc2ccc(S(N)(=O)=O)cc2)c2ccccc23)cc1` reads 0.206 µM [falling, full curve, poor fit].
As to `Cc1noc(/C=C/c2ccco2)c1S(=O)(=O)N1CCC(C(=O)Nc2ccc(Cl)cn2)CC1`, the AC50 under setting [1] is 8.2 µM [falling, partial curve, poor fit] and the AC50 under setting [2] was 29.1 µM [rising, single point].
With `COc1cccc(-n2nnnc2S(C)(=O)=O)c1`, the AC50 was 4.11 µM [falling, full curve] under setting [1] and 4.61 µM [rising, partial curve, poor fit] under setting [2].
Turning to `COc1ccc(NC(=O)c2ccccc2Oc2ccccc2)cc1`, the AC50 under setting [1] was 1.12 µM [rising, full curve, poor fit].
`O=C1C2=C(C(c3ccccc3)=NCCN2)C(c2cccc([N+](=O)[O-])c2)N1c1ccccc1` (stereo not drawn): the AC50 under setting [1] was 12.6 µM [falling, single point].
Regarding `Cc1ccc(C)c(NC(=O)CNS(=O)(=O)c2ccccc2)c1`, the concentration at half-maximal activity (AC50) under setting [1] is 0.184 µM [rising, full curve, poor fit].
Regarding `CCc1ccc2[nH]c(=O)c(CN(CCCN3CCOCC3)C(=O)Nc3ccccc3)cc2c1`, the AC50 under setting [1] was 3.66 µM [rising, partial curve, poor fit].
The same measure, in the same setting: to `COc1ccc(N(CCC#N)C(=O)/C(C#N)=C\c2cccs2)cc1` belongs 8.91 µM [rising, partial curve, poor fit].
The same measure, in the same setting: the result for `COc1cc2c(cc1OC)CN(C(=O)c1ccc(N3CCCC3)c([N+](=O)[O-])c1)CC2` reads 2.06 µM [rising, partial curve, poor fit]; that for `CS(=O)(=O)N(CC(=O)N1CCc2ccccc2C1)Cc1ccc(Cl)cc1`, 18.4 µM [falling, single point]; that for `CCOC(=O)C1CCCN(S(=O)(=O)c2cc(Br)cc3c2N(C(C)=O)CC3)C1` (stereo not drawn), 25.1 µM [rising, partial curve, poor fit].
`CCOc1ccccc1NC(=S)N1CCC(NC(=O)c2ccco2)CC1`: the AC50 under setting [1] is 0.316 µM [rising, full curve, poor fit].
On to `CNC(=S)N(CCc1c(C)[nH]c2ccc(F)cc12)Cc1ccco1`, for which the AC50 under setting [1] was 35.5 µM [falling, single point].
On the same count and under the same terms, to `CN(c1nc(-c2ccccc2)cs1)C1CCS(=O)(=O)C1` (stereo not drawn) belongs 14.6 µM [rising, partial curve].
Turning to `S=C(N/N=C/c1ccco1)NC1CC2CCC1C2` (stereo not drawn), the AC50 was 0.708 µM [rising, full curve, poor fit] under setting [1] and 35.5 µM [falling, single point] under setting [2].
In the case of `CCCC(=O)NC(c1ccc(OC)cc1)c1c(O)ccc2ccccc12` (stereo not drawn), the AC50 under setting [1] is 7.94 µM [falling, partial curve].
On the same count and under the same terms, to `CCc1nnc(NC(=O)c2cccs2)s1` belongs 23.1 µM [falling, single point].
For `Cc1cc(-c2nnc(CCC(=O)NCC(C)c3ccccc3)o2)no1` (stereo not drawn), under setting [2], the AC50 is 35.5 µM [rising, partial curve, poor fit].
Take `CC(=O)Nc1c(S(=O)(=O)c2ccccc2)c2nc3ccccc3nc2n1Cc1ccccc1`: under setting [1], the AC50 is 7.08 µM [falling, partial curve, poor fit].
With `CCOC(=O)c1cc(C)nc(S(C)(=O)=O)c1C#N`, the AC50 is, setting by setting: under setting [1], 11.2 µM [falling, partial curve, poor fit]; under setting [2], 11.2 µM [rising, partial curve, poor fit].
As to `CC(=O)CCS(=O)(=O)c1ccc(C)c(C)c1`, under setting [1], the AC50 was 23.1 µM [falling, partial curve, poor fit].
`CN(C)c1ccc2c(c1)OC(N)=C(C#N)C2c1cccc(F)c1` (stereo not drawn): the AC50 was 2.24 µM [rising, full curve, poor fit] under setting [1] and 0.501 µM [falling, full curve] under setting [2].
Take `COc1ccc(OCCN2C(=O)c3ccccc3C2=O)c([N+](=O)[O-])c1`: the AC50 under setting [1] is 35.5 µM [rising, partial curve, poor fit].
Same read-out and setting: to `O=C(NCc1cccnc1)c1cc(Sc2cccc(Cl)c2)nc2ccccc12` belongs 3.66 µM [rising, single point].
Same read-out and setting: the result for `Cn1c(=O)c2c(nc(CN3CCN(c4ccccc4)CC3)n2Cc2c(F)cccc2Cl)n(C)c1=O` reads 2 µM [rising, full curve, poor fit]; that for `COc1ccc(NC(=O)CCS(=O)(=O)c2ccc3c(c2)oc(=O)n3C)cc1OC`, 22.4 µM [rising, single point]; that for `CC1(C)N=C(SCC(=O)Nc2ccc(Cl)cc2)C(c2ccc(Cl)cc2)=N1`, 16.4 µM [falling, partial curve, poor fit].
On the same count and under the same terms, to `CCC(=O)n1nc(NCc2ccc(OC)c(OC)c2)nc1NCc1ccc(OC)c(OC)c1` belongs 3.66 µM [rising, single point].
For the compound `O=C(/C=C/c1ccco1)N1CCN(S(=O)(=O)/C=C/c2ccccc2)CC1`, the AC50 under setting [1] is 4.47 µM [rising, partial curve, poor fit].
Consider `CCOc1ccccc1C(=O)Nc1ccccc1O`, for which the AC50 under setting [1] was 16.4 µM [falling, single point].
Take `c1ccc(CC2CCCNC2)cc1` (stereo not drawn): the AC50 under setting [1] was 5.62 µM [rising, single point].
Still for that read-out and setting: to `CN1CCN(CCCN2c3ccccc3Sc3ccc(S(=O)(=O)N(C)C)cc32)CC1` belongs 23.1 µM [falling, single point]; to `CCOc1ccc(C(=O)NCCc2ccccc2)cc1`, 14.6 µM [falling, partial curve, poor fit]; to `CCOc1ccccc1N1C(=O)CN(Cc2ccc(OC)c(OC)c2)C1=S`, 17.8 µM [falling, single point].
Still for that read-out and setting: to `O=C(CNC(=O)c1cccc(N2C(=O)c3ccccc3C2=O)c1)Nc1ccc(F)c(F)c1` belongs 2.31 µM [rising, partial curve]; to `Cn1cc([N+](=O)[O-])c(C(=O)N/N=C\c2c[nH]c3ccccc23)n1`, 11.2 µM [falling, single point]; to `CC(=O)N(Cc1cccnc1)c1cccc(-c2nc3ccccc3s2)c1`, 35.5 µM [falling, single point].
Still for that read-out and setting: the result for `CCOc1cc(/C=C2\C(=O)NN(c3ccccc3)C2=O)cc([N+](=O)[O-])c1O` reads 25.1 µM [falling, single point]; that for `COc1ccccc1C(NC(=O)C1CCCCC1)c1c(O)ccc2ccccc12` (stereo not drawn), 23.1 µM [rising, partial curve, poor fit].
As for `CCCOc1ccc(NC(=O)OC2CCN(C)CC2)cc1`, under setting [1], the AC50 is 16.4 µM [rising, single point].
Turning to `O=c1c2ccccc2ccc2ccc(P(=O)(O)O)cc12`, the AC50 under setting [2] was 5.8 µM [rising, partial curve, poor fit].
`CN(C)c1ccnc(Oc2ccccc2)c1C#N`: the AC50 under setting [1] was 8.91 µM [rising, partial curve, poor fit].
Turning to `COc1ccccc1/C=N/NC(=O)c1sc(C)nc1C`, the AC50 under setting [1] is 35.5 µM [falling, single point].
Same read-out and setting: the result for `Nc1ncnc(Sc2ccccc2)c1[N+](=O)[O-]` reads 6.51 µM [falling, partial curve].
The same measure, in the same setting: to `CC(=O)Nc1ccc(S(=O)(=O)Nc2nc(C)nc3sc4c(c23)CCC4)cc1` belongs 0.794 µM [rising, full curve, poor fit]; to `Cn1ccnc1C(=O)c1cc(SCC(=O)N2CCOCC2)nc2ccccc12`, 35.5 µM [rising, single point].
On the same count and under the same terms, to `O=C(Nc1ccc(S(=O)(=O)N2CCOCC2)cc1)c1ccc2ncsc2c1` belongs 11.2 µM [falling, partial curve]; to `COc1ccc(OC)c2sc(NC(=O)C3CC3)nc12`, 0.58 µM [falling, full curve, poor fit]; to `CCCN(CC(=O)Nc1ccccc1C)C(=O)Cc1coc2cc(C)ccc12`, 14.1 µM [falling, single point].
`CCOC(=O)c1sc(NC(=O)Nc2ccccc2Cl)cc1C`: the AC50 under setting [1] is 25.9 µM [falling, single point].
`Oc1ccc(-c2nnc(SCC3CCCCC3)o2)cc1`: the AC50 under setting [1] is 31.6 µM [falling, single point].
Regarding `CSCCC(=O)Nc1nc(-c2ccccn2)cs1`, the AC50 under setting [1] is 11.2 µM [falling, single point].
Still for that read-out and setting: the result for `Cc1ccc(NC(=O)CN2C(=O)S/C(=C/c3ccc(-c4cc(C(=O)O)ccc4C)o3)C2=O)cc1C` reads 16.4 µM [rising, partial curve, poor fit]; that for `CCSc1nnc(NC(=O)c2ccco2)s1`, 29.1 µM [falling, single point]; that for `CCOc1ccc(OCCn2c(SCC(=O)O)nc3ccccc32)cc1`, 7.94 µM [falling, partial curve, poor fit].
The same measure, in the same setting: to `CS(=O)(=O)Nc1ccc(N2CCCCC2)c(Cl)c1` belongs 11.6 µM [rising, partial curve, poor fit]; to `O=C(Nc1nccs1)c1cncc(Br)c1`, 11.2 µM [falling, single point].
The same measure, in the same setting: to `O=C(NCc1ccccc1)N1CCN(c2ccccc2F)CC1` belongs 16.4 µM [rising, partial curve, poor fit].
For the compound `NNC(=O)c1cc2sccc2s1`, the AC50 under setting [2] is 25.1 µM [falling, single point].
Turning to `CCc1nn(CCCC(=O)NCc2ccc(C)cc2)c(=O)c2cc3occc3n12`, the AC50 under setting [1] was 15.8 µM [rising, single point].
The same measure, in the same setting: the result for `Cc1ccc(COc2ccc(/C=N/O)cc2)cc1` reads 20.6 µM [rising, partial curve]; that for `COc1cc(C(C)=O)ccc1OCC(=O)c1cc(C)n(C2CC2)c1C`, 3.16 µM [rising, single point].

These data come from PubChem BioAssay AID493014 (National Center for Advancing Translational Sciences (NCATS), 2011).
